Measurements from article PMC5651216, “Structural Basis for a Safety-Belt Mechanism That Anchors Condensin to Chromosomes”.
Changes are numbered by the printed parent chain. No constants are given. Whether binding was seen depends on the method and setting. Some entries that bind do so weakly or less than the wild type. Sequences can lack the tags named with a protein.

B1: Sc Ycs4 (protein, UniProt Q06156 1-1176)
chain: MSGFSLSEYLTKFQTTDRESYPRLQDPSRELNVIIDQLAVSPEQIDASPDSLEALIDLCHDFPHLTPKLQTQLSYLISSSLSNLSKDIKANLSSNVNFTEIGGLIPQWKRHLEEYGYLIQVLLTFLQDELHKVSSQSTNLNRSAKNSKNDSANVELFKRDCNQMENLLESITKLLEINLSKIFQTTPEKDLFIGLFTRPLFVLLEIEPVTKVSSLKMFIQRILAMCVKNHGQSSSIQSSLMTNLTYFLHLSVFNAELLKLLNDEYNYPQLTEDILKEISTRVFNAKDTTGPKAISNFLIKLSELSPGIMLRQMNLVITLLNNSSITLRCSVVEACGNIVAELAQDPQTMEHYKQQIAVLIELLEERFQDSNPYVRTKAIQGCSKICDLSSKFNKSKAKFTSLAVRSLQDRSSLVRRNSVKLLSKLLLKHPFKAIHGSQLRLSEWEEYLKGSESQLNSTLKKVESQETLNDTIERSLIEEEVEQDEGQCRTELEGSFNKSAELSRIENEVENINATNTSVLMKLKLMIVYYKDAISFIKEIHKSIELISNLLFSKNRNEVLESMDFLVLADAFDIELSEFGIKKMLHLVWMKGTNDEGTSISVHLIECYKQLFLTAPDSCNMQEKAAHIAKNLINLSIGASIADLASLEQLLGMMYEQKLIDQHVINILWAIYNSASKASMQKEQNVNNRDSEKGFSKEQIHGSIIILGMLSLADNEIALKGLESLLNIGLGAVGLKDLTLCRYSCLALERMVPKRSTIITKAINQELEDVAVKKLYAIIINYTKDNEYYPMCEQALSALFTISSKPDILATDLIREKTMMTFGKPEEEDSILSLEQSSRVVSLSQLLFIVGQVAIKTLVYLEKCEAEFKKRKIEAETRNGKVKNQGADVTNTTQDNGGDKELEMIGGTNEDDFTDAIQFVKENELLFGEKSILGKFCPIVEEIVSNSSRFSDPMLQRTATLCLEKLMCLSSKYCEKSLPLLITVMEKSPDPTIRSNAVLGLGDMAVCFNNLVDENTDYLYRRLHDENLMVQRTCLMTVTFLILAGQVKVKGQLGEMAKCLDNPDQGISDMCRLFFTELASKDNAIYNGFIDIFSNLSSDDLLGKESFKKIIKFLLTFIDKERHQKQLNEKLVGRLRKCETQKQWDDIAFVLNNLPYKNEDVTALLEQGFKVVSAKE
B2: Sc Ycg1 (full length, overexpressed) (protein, UniProt Q06680 1-1035)
chain: MQDPDGIDINTKIFNSVAEVFQKAQGSYAGHRKHIAVLKKIQSKAVEQGYEDAFNFWFDKLVTKILPLKKNEIIGDRIVKLVAAFIASLERELILAKKQNYKLTNDEEGIFSRFVDQFIRHVLRGVESPDKNVRFRVLQLLAVIMDNIGEIDESLFNLLILSLNKRIYDREPTVRIQAVFCLTKFQDEEQTEHLTELSDNEENFEATRTLVASIQNDPSAEVRRAAMLNLINDNNTRPYILERARDVNIVNRRLVYSRILKSMGRKCFDDIEPHIFDQLIEWGLEDRELSVRNACKRLIAHDWLNALDGDLIELLEKLDVSRSSVCVKAIEALFQSRPDILSKIKFPESIWKDFTVEIAFLFRAIYLYCLDNNITEMLEENFPEASKLSEHLNHYILLRYHHNDISNDSQSHFDYNTLEFIIEQLSIAAERYDYSDEVGRRSMLTVVRNMLALTTLSEPLIKIGIRVMKSLSINEKDFVTMAIEIINDIRDDDIEKQEQEEKIKSKKINRRNETSVDEEDENGTHNDEVNEDEEDDNISSFHSAVENLVQGNGNVSESDIINNLPPEKEASSATIVLCLTRSSYMLELVNTPLTENILIASLMDTLITPAVRNTAPNIRELGVKNLGLCCLLDVKLAIDNMYILGMCVSKGNASLKYIALQVIVDIFSVHGNTVVDGEGKVDSISLHKIFYKVLKNNGLPECQVIAAEGLCKLFLADVFTDDDLFETLVLSYFSPINSSNEALVQAFAFCIPVYCFSHPAHQQRMSRTAADILLRLCVLWDDLQSSVIPEVDREAMLKPNIIFQQLLFWTDPRNLVNQTGSTKKDTVQLTFLIDVLKIYAQIEKKEIKKMIITNINAIFLSSEQDYSTLKELLEYSDDIAENDNLDNVSKNALDKLRNNLNSLIEEINERSETQTKDENNTANDQYSSILGNSFNKSSNDTIEHAADITDGNNTELTKTTVNISAVDNTTEQSNSRKRTRSEAEQIDTSKNLENMSIQDTSTVAKNVSFVLPDEKSDAMSIDEEDKDSESFSEVC
B3: Sc Smc4-StrepII3 (protein, UniProt Q12267 1-1418)
chain: MSDSPLSKRQKRKSAQEPELSLDQGDAEEDSQVENRVNLSENTPEPDLPALEASYSKSYTPRKLVLSSGENRYAFSQPTNSTTTSLHVPNLQPPKTSSRGRDHKSYSQSPPRSPGRSPTRRLELLQLSPVKNSRVELQKIYDRHQSSSKQQSRLFINELVLENFKSYAGKQVVGPFHTSFSAVVGPNGSGKSNVIDSMLFVFGFRANKMRQDRLSDLIHKSEAFPSLQSCSVAVHFQYVIDESSGTSRIDEEKPGLIITRKAFKNNSSKYYINEKESSYTEVTKLLKNEGIDLDHKRFLILQGEVENIAQMKPKAEKESDDGLLEYLEDIIGTANYKPLIEERMGQIENLNEVCLEKENRFEIVDREKNSLESGKETALEFLEKEKQLTLLRSKLFQFKLLQSNSKLASTLEKISSSNKDLEDEKMKFQESLKKVDEIKAQRKEIKDRISSCSSKEKTLVLERRELEGTRVSLEERTKNLVSKMEKAEKTLKSTKHSISEAENMLEELRGQQTEHETEIKDLTQLLEKERSILDDIKLSLKDKTKNISAEIIRHEKELEPWDLQLQEKESQIQLAESELSLLEETQAKLKKNVETLEEKILAKKTHKQELQDLILDLKKKLNSLKDERSQGEKNFTSAHLKLKEMQKVLNAHRQRAMEARSSLSKAQNKSKVLTALSRLQKSGRINGFHGRLGDLGVIDDSFDVAISTACPRLDDVVVDTVECAQHCIDYLRKNKLGYARFILLDRLRQFNLQPISTPENVPRLFDLVKPKNPKFSNAFYSVLRDTLVAQNLKQANNVAYGKKRFRVVTVDGKLIDISGTMSGGGNHVAKGLMKLGTNQSDKVDDYTPEEVDKIERELSERENNFRVASDTVHEMEEELKKLRDHEPDLESQISKAEMEADSLASELTLAEQQVKEAEMAYVKAVSDKAQLNVVMKNLERLRGEYNDLQSETKTKKEKIKGLQDEIMKIGGIKLQMQNSKVESVCQKLDILVAKLKKVKSASKKSGGDVVKFQKLLQNSERDVELSSDELKVIEEQLKHTKLALAENDTNMNETLNLKVELKEQSEQLKEQMEDMEESINEFKSIEIEMKNKLEKLNSLLTYIKSEITQQEKGLNELSIRDVTHTLGMLDDNKMDSVKEDVKNNQELDQEYRSCETQDESEIKDAETSCDNYHPMNIDETSDEVSRGIPRLSEDELRELDVELIESKINELSYYVEETNVDIGVLEEYARRLAEFKRRKLDLNNAVQKRDEVKEQLGILKKKRFDEFMAGFNIISMTLKEMYQMITMGGNAELELVDSLDPFSEGVTFSVMPPKKSWRNITNLSGGEKTLSSLALVFALHKYKPTPLYVMDEIDAALDFRNVSIVANYIKERTKNAQFIVISLRNNMFELAQQLVGVYKRDNRTKSTTIKNIDILNRT

These binders were tested against T1, Sc Brn1-His12-HA3 (S. cerevisiae) (UniProt P38170) (assay: tandem affinity co-purification (HisTrap, Strep-Tactin) and SEC; condensin subunits overexpressed together in S. cerevisiae; HisTrap on Brn1-His12-HA3, Strep-Tactin on Smc4-StrepII3 (wash with 500 mM NaCl), Superose 6; SDS-PAGE and Coomassie staining).
T1 sequence: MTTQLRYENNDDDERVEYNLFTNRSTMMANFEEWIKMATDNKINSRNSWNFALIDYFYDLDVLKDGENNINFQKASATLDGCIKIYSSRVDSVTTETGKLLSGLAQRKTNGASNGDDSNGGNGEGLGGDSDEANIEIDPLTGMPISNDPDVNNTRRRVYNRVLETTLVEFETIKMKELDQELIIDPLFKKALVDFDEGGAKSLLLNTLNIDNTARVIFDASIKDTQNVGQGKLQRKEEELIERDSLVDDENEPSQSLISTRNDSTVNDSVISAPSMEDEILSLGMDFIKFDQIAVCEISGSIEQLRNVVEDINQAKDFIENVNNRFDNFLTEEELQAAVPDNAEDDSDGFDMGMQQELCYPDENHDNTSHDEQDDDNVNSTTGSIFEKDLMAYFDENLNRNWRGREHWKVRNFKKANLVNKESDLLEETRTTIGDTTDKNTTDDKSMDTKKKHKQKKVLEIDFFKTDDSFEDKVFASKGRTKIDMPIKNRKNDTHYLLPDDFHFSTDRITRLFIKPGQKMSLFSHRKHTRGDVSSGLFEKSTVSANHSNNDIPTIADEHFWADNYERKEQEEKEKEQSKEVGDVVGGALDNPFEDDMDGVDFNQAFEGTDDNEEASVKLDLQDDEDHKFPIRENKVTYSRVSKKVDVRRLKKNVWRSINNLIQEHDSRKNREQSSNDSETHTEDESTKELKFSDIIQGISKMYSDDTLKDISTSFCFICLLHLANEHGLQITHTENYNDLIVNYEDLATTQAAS

binding, binds:
B1
B2
B3

These binders were tested against T2, Sc Brn1ΦD-His12-HA3 (S. cerevisiae) (UniProt P38170) in the same assay as above.
T2 sequence: T1 sequence with M391D, F394D, W402D, W408D

binding, binds:
B1
B2
B3

Each binder was assayed against T3, Sc Brn1_(BC1/2)-His12-HA3 (S. cerevisiae) (UniProt P38170) in the same assay as above.
T3 sequence: T1 sequence with K409D, R411D, K414D, K451D, K452D, K454D, K456D, K457D

binding, binds:
B1
B2
B3
